# Test results from PubChem BioAssay AID1487 (National Center for Advancing Translational Sciences (NCATS), 2009).
# This is one part of the list. The main result of the screen is listed elsewhere. These columns were measured beside it and carry no call. The list favours compounds with an active or inconclusive main result. Potencies come from curve fits of mixed quality, noted in brackets.
# Experiment: qHTS Assay for Modulators of Lamin A Splicing
# Settings: HeLa LMNA splicing GFP/RFP minigene ratio, 48 h
# Summary of the method: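 S3 HeLa stable clones carrying a lamin A-EGFP splicing minigene plus DsRed2 were seeded at 600 cells/well in Opti-MEM with 2% FBS, pin-dosed and incubated 48 h at 37°C. Acumen cytometry (488 nm) gave the GFP/RFP total-intensity ratio.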
# [1] = measured here: RFP viability control channel
# [2] = measured here: GFP splicing reporter channel
SMILES,AC50 [1],AC50 [2]
Cc1ccccc1OCCn1cnc2c(N)ncnc21,"14.1 µM [rising, partial curve]",–
COc1ccccc1N1CCN(C[C@@H](O)COc2cccc3ccccc23)CC1,"0.316 µM [falling, full curve, poor fit]","0.398 µM [falling, full curve]"
Cc1ccc2c(CSc3nc4ccccc4c(=O)n3CCCO)cc(=O)oc2c1C,"17.8 µM [rising, single point]","14.1 µM [rising, partial curve, poor fit]"
CC(C)OCCCNC(=O)c1c2c(nc3ccccc13)C(=O)N(C1CCCCC1)C2,"0.0447 µM [rising, full curve, poor fit]",–
BrC(=C\c1ccccc1)/C=N/n1cnnc1,–,"2.82 µM [falling, full curve, poor fit]"
CCc1cc2c(=O)c(-c3ccc4c(c3)OCCO4)coc2cc1OS(C)(=O)=O,"10 µM [rising, partial curve, poor fit]",–
COc1ccc(CCNC(=O)CSc2ncnc3c2oc2ccccc23)cc1OC,–,"5.62 µM [rising, single point]"
Cc1cc(C)cc(Nc2ncnc3sc4c(c23)CCCC4)c1,"35.5 µM [rising, single point]","0.708 µM [rising, full curve, poor fit]"
O=C(C1=C(O)/C(=C/c2ccc(O)cc2)CCC1)C(F)(F)F,"35.5 µM [rising, single point]",–
CCOC(=O)c1cc(-c2ccccc2)n(CC(=O)Nc2cc(Cl)c(OC)cc2OC)c1C,"35.5 µM [falling, single point]","35.5 µM [falling, single point]"
C=C(C)CN=C1SC(C(=O)Nc2sc3c(c2C(=O)OC)CCC3)C(N)=C1C(N)=O (stereo unspecified),"4.47 µM [rising, partial curve]","0.0891 µM [rising, partial curve, poor fit]"
C=CCn1c(SCC(N)=O)nnc1-c1ccccc1O,"11.2 µM [rising, partial curve, poor fit]",–
COc1ccc(-n2sc3c(c2=S)-c2cc(OC)ccc2NC3(C)C)cc1,"35.5 µM [rising, single point]",–
CC(C)C(c1nnnn1Cc1ccccc1)N1CCN(Cc2ccc3c(c2)OCO3)CC1 (stereo unspecified),"11.2 µM [rising, partial curve, poor fit]","11.2 µM [rising, partial curve, poor fit]"
Cc1cc(C)nc(SCc2ccc(C(=O)NNC(=O)Nc3cccc(Cl)c3)cc2)n1,"11.2 µM [rising, partial curve]",–

# Quoted at random: two entries already listed, in no set order.
SMILES,AC50 [1],AC50 [2]
CC(C)C(c1nnnn1Cc1ccccc1)N1CCN(Cc2ccc3c(c2)OCO3)CC1 (stereo unspecified),"11.2 µM [rising, partial curve, poor fit]","11.2 µM [rising, partial curve, poor fit]"
CCOC(=O)c1cc(-c2ccccc2)n(CC(=O)Nc2cc(Cl)c(OC)cc2OC)c1C,"35.5 µM [falling, single point]","35.5 µM [falling, single point]"
